EP2589383A1 (Max-Planck-Gesellschaft zur Förderung der Wissenschaften …, priority 2011, dated 2013)
For at least one compound, name, drawing or mass did not settle the structure.

System: Yeast cells (FKBP deletion strain Δ)
Test: Growth of FKBP-deficient yeast strain expressing human FKBPs on rapamycin medium
Type: cell-based
Details: 5 µM rapamycin; overexpression of human FKBP51 FK1; 3 days

In the case of `CO[C@H]1C[C@@H]2CC[C@@H](C)[C@@](O)(O2)C(=O)C(=O)N2CCCC[C@H]2C(=O)O[C@H]([C@H](C)C[C@@H]2CC[C@@H](O)[C@H](OC)C2)CC(=O)[C@H](C)/C=C(\C)[C@@H](O)[C@@H](OC)C(=O)[C@H](C)C[C@H](C)/C=C/C=C/C=C/1C` [rapamycin], the cell growth is reported as “reduced cell growth”.
